According to the supplement of paper PMC10849652:
The other results are listed elsewhere or left out.

The chains behind the UniProt entries cited, without tags or fusion partners. Where a name states a change or a piece, a line headed by the entry shows the natural chain unless it says otherwise.
UniProt Q8IVL6: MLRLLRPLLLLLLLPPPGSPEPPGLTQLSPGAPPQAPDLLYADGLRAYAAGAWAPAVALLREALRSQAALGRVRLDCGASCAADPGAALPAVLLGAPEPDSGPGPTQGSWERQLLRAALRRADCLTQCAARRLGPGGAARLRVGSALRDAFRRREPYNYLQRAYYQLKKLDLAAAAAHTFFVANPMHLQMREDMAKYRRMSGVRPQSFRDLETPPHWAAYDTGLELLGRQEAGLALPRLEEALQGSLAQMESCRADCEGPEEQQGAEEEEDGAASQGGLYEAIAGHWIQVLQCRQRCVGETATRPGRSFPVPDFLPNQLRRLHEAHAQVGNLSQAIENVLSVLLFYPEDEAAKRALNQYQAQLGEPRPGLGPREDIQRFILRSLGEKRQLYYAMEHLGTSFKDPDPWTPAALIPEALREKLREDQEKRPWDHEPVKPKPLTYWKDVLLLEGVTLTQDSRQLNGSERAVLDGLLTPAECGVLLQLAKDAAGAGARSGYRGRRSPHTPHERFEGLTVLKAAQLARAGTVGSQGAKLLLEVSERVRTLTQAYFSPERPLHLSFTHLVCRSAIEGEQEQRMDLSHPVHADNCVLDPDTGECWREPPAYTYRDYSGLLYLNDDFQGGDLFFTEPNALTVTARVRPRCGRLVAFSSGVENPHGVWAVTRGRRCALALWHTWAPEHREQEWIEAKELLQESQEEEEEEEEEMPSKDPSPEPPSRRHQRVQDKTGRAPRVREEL
UniProt Q9BWT3: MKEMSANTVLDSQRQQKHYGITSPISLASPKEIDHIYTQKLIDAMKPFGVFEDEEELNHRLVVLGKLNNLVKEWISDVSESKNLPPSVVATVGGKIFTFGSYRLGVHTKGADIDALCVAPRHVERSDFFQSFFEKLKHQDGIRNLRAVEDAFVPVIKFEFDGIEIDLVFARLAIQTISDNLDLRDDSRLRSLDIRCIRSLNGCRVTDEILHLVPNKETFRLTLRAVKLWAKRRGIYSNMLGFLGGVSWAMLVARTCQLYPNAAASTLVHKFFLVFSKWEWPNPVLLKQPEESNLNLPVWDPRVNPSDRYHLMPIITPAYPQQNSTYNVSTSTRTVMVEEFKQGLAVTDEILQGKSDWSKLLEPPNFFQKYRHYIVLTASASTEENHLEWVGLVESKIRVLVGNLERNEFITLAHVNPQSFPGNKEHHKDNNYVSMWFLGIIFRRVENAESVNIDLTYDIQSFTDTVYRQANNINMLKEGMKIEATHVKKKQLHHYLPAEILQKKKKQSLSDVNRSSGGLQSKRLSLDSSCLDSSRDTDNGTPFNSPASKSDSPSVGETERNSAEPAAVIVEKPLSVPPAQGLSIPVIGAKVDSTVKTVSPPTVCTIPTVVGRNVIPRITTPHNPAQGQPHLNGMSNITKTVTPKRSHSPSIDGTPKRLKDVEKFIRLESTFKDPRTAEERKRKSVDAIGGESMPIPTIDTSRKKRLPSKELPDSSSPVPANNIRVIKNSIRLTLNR
UniProt O75459: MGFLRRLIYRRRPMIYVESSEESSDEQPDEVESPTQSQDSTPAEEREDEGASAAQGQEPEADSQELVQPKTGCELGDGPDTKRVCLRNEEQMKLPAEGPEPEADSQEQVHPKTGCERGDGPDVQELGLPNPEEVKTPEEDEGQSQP
UniProt Q8N7B6: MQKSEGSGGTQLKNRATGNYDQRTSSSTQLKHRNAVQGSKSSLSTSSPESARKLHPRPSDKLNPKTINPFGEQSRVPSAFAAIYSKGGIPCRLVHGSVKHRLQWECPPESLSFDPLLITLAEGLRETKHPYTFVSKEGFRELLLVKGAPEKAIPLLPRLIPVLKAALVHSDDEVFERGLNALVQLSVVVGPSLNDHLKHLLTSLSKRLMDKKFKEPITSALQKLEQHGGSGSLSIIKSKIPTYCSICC
UniProt O75781: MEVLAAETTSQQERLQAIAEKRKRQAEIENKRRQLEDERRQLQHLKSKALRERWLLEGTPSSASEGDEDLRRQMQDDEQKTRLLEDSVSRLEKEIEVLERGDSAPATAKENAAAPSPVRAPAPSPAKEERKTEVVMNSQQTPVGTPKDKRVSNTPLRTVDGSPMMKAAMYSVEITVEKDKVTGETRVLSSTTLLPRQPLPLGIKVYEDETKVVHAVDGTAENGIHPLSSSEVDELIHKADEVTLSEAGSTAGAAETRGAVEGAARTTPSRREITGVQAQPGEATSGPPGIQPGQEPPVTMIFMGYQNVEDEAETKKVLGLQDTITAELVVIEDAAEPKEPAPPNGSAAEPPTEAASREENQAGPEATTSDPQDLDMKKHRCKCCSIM
UniProt P35658: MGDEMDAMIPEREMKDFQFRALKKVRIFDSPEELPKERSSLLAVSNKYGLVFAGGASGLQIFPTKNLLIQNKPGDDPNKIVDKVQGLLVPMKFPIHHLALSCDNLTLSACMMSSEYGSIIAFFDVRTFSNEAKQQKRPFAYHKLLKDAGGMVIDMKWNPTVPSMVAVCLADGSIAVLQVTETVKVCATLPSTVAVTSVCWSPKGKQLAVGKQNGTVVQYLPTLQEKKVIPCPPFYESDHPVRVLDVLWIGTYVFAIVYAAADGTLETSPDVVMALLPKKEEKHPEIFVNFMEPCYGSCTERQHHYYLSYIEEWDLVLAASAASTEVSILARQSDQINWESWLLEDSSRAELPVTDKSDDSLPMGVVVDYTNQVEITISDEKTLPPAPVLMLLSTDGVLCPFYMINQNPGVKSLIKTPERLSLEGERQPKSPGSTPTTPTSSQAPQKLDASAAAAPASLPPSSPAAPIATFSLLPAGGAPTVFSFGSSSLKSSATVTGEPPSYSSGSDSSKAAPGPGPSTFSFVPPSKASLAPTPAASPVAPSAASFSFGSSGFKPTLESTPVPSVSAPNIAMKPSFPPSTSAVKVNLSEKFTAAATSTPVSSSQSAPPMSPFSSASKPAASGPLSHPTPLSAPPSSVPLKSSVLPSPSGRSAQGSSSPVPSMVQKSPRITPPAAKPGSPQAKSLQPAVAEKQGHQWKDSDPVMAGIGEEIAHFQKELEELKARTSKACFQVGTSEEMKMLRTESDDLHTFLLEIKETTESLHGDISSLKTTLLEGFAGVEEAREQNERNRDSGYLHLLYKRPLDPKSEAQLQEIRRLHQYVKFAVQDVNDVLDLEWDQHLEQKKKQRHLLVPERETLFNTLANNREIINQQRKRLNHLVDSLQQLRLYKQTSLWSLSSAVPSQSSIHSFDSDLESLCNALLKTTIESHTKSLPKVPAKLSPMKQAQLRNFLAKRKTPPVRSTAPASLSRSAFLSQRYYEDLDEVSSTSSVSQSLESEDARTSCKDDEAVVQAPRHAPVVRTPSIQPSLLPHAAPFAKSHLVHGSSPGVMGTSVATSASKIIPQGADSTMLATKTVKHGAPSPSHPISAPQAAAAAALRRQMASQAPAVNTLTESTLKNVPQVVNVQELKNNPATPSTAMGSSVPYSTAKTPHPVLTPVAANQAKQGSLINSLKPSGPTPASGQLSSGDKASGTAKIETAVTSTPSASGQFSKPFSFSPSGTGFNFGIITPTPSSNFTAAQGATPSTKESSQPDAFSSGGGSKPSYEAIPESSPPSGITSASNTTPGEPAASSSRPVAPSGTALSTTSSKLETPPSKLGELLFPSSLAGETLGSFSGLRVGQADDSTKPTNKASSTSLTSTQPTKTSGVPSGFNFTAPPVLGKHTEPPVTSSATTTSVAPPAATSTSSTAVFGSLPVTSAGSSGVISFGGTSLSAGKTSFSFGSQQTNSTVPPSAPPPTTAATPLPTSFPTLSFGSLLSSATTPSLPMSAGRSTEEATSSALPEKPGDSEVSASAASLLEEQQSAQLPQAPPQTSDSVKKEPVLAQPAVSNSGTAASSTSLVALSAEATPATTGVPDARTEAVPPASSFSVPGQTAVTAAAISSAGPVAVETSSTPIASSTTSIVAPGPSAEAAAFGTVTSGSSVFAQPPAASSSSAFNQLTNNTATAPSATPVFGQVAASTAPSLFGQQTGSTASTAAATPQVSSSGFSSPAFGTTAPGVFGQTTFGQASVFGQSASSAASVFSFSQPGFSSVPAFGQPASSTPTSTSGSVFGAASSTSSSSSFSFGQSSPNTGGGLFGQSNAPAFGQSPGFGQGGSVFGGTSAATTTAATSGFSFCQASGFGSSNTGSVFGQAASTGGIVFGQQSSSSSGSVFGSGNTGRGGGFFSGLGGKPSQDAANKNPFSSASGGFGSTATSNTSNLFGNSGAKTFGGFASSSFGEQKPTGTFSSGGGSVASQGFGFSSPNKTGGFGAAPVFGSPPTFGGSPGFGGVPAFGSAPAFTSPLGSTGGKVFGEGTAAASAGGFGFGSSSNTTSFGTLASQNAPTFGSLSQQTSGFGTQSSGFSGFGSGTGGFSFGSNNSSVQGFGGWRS
UniProt Q13438: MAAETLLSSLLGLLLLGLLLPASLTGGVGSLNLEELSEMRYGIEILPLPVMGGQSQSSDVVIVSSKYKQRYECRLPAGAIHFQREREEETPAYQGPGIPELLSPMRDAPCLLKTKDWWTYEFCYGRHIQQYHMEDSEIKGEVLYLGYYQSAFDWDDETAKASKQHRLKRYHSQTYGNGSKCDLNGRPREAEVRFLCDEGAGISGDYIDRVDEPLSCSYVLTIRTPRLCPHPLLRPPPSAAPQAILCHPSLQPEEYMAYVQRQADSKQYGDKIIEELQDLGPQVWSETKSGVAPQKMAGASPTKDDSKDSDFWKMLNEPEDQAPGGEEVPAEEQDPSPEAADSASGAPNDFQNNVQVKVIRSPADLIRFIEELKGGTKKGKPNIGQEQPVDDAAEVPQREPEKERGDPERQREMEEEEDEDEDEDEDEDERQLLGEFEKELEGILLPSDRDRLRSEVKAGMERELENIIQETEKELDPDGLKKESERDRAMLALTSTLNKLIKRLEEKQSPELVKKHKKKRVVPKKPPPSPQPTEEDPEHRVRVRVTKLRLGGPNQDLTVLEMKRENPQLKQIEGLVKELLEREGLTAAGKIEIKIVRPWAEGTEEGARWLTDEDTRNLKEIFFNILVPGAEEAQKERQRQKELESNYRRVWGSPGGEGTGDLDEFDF
UniProt O60829: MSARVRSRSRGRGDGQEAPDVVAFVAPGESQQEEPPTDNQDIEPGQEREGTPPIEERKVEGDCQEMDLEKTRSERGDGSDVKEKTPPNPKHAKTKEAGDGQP
UniProt Q13415: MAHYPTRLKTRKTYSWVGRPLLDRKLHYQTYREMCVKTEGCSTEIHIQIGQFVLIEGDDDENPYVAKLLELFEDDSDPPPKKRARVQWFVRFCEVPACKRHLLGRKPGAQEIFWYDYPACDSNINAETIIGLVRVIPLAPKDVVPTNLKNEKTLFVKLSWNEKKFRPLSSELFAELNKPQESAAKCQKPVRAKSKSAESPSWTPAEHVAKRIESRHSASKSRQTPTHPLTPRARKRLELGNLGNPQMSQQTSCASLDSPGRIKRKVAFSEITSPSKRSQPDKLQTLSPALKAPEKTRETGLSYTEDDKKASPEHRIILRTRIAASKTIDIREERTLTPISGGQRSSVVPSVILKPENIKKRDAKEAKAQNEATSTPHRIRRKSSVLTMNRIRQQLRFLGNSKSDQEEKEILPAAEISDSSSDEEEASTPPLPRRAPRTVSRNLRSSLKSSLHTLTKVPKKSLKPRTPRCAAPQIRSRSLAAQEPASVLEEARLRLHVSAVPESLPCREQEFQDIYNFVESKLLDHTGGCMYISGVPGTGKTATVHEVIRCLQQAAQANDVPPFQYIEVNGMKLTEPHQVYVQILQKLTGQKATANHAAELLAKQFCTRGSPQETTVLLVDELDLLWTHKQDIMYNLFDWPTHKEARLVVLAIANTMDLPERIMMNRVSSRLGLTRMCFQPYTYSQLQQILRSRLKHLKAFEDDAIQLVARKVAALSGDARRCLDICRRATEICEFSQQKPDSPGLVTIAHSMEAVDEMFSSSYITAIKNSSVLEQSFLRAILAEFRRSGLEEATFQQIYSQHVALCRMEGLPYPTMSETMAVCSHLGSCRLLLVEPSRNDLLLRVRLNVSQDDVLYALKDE
UniProt Q9GZY0: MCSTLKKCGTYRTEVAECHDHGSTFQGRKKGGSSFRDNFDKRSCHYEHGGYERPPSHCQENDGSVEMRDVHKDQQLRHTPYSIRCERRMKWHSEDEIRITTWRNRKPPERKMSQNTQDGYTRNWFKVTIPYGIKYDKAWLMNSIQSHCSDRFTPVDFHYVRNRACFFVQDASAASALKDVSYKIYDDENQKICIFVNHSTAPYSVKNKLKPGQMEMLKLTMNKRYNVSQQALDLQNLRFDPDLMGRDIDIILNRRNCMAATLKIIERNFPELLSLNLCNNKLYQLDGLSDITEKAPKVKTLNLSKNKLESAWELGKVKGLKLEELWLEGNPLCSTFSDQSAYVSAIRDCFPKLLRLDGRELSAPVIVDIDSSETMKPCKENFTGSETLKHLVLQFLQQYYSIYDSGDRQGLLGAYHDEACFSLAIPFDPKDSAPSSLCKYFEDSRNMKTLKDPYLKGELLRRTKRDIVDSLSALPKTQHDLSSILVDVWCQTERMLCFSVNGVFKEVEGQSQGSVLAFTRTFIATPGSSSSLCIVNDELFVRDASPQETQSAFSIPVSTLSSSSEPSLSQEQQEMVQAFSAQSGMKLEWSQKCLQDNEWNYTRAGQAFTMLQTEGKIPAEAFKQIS

Experiments:
Test in all cases: log2 fold change, soluble protein after heating vs DMSO (PISA); higher = thermal stabilisation; K562 lysate, 10 uM; active = over 0.2 and 3.5 SD of the protein, either way, in both replicates (recomputed)
[1] = compound: C#Cc1cccc(Nc2ncnc3cc(OCCOC)c(OCCOC)cc23)c1 [erlotinib]
In short: (§1)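 Soluble protein was defined as the supernatant remaining after 21,000xg for 90 min, following pooling of heated aliquots and adjustment to 0.5% NP-40 at 4°C. Before that, crude K562 extract at 1 mg/mL protein in PBS pH 7.4 with 1 mM MgCl2 was treated with 10 μM compound for 30 min and heated for 3 min across 48°C-58°C. Quantification used TMTpro 16plex LC-MS/MS with channel sums equalised, and values are log-two fold changes in thermal stability relative to solvent controls from duplicates.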

[2] = compound: C/C(=N\NC(=O)C1=CC(=CC=C1)S(=O)(=O)N2CCOCC2)/C3=C(C=CC(=C3)Cl)O
In short: as §1

[3] = compound: C1=CC(=CC=C1C2=NC3=C(N2)C=C(C=C3)C(=O)N)OC4=CC=C(C=C4)Cl
In short: as §1

[4] = compound: C1=CC2=C(C=CC(=C2)/C=C\3/C(=O)NC(=NCC4=CC=CS4)S3)N=C1
In short: as §1

[5] = compound: C1=CC=C2C(=C1)C3=NNC4=CC=CC(=C43)C2=O
In short: as §1

[6] = compound: C1=CC=C(C=C1)C2=NC(=C(N2)C3=CC=NC=C3)C4=CC(=C(C=C4)Cl)O
In short: as §1

[7] = compound: C1CCN(C1)C(=O)NC2=CC=CC(=C2)NC3=NC=C(C(=N3)NCCC4=CN=CN4)Br
In short: as §1

[8] = compound: C1CN(CCC1(CC2=CC=C(C=C2)Cl)N)C3=NC=NC4=C3C=CN4
In short: as §1

[9] = compound: C1COCCN1CCN2C3=CC=CC=C3N=C2NC(=O)C4=CC(=CC=C4)[N+](=O)[O-] [IRAK-1-4 Inhibitor I]
In short: as §1

[10] = compound: C1=CC2=NC=CN=C2C=C1/C=C/3\C(=O)NC(=O)S3
In short: as §1

Measured: log2 fold change

P3H3 (UniProt Q8IVL6)
inactive: [1] -0.209 | [2] 0.035 | [3] 0.006 | [4] 0.165 | [5] -0.141

PAPOLG (UniProt Q9BWT3)
inactive: [1] 0 | [2] -0.068 | [3] -0.092 | [4] 0.035 | [6] 0.055 | [5] 0.041 | [7] -0.086 | [8] 0.104 | [9] 0.136

PAN2 isoform 2 (UniProt Q504Q3)
inactive: [1] 0 | [2] -0.007 | [3] -0.015 | [4] -0.005 | [10] 0.052 | [6] 0.03 | [5] 0 | [7] -0.017 | [8] -0.031 | [9] 0.006

NVL (UniProt O15381)
inactive: [1] -0.008 | [2] -0.024 | [3] 0.015 | [4] 0.04 | [10] -0.097 | [6] 0.058 | [5] 0.097 | [9] 0.026

OGA (UniProt O60502)
inactive: [1] 0 | [2] -0.011 | [3] 0.007 | [4] -0.023 | [10] -0.001 | [6] -0.019 | [5] 0.019 | [7] 0.009 | [8] 0.012 | [9] -0.01

PAGE1 (UniProt O75459)
inactive: [1] 0.004 | [2] -0.028 | [3] 0.089 | [4] -0.03 | [10] -0.007 | [6] -0.001 | [5] -0.075 | [7] 0.056 | [8] -0.045 | [9] -0.022

NXF1 (UniProt Q9UBU9)
inactive: [1] 0.058 | [2] -0.019 | [3] -0.033 | [4] 0.003 | [10] -0.055 | [6] -0.004 | [5] 0 | [7] 0.04 | [8] -0.019 | [9] -0.004

OPLAH (UniProt O14841)
inactive: [1] 0.044 | [2] 0.005 | [3] -0.017 | [4] 0.03 | [10] 0.106 | [6] 0.041 | [5] 0.007 | [7] 0.013 | [8] -0.017 | [9] -0.014

PAFAH2 (UniProt Q99487)
inactive: [1] 0.005 | [2] -0.308 | [3] 0.048 | [4] 0.04 | [10] 0 | [6] 0.017 | [5] 0.08 | [7] 0.001 | [8] -0.064 | [9] 0.015

PACRGL (UniProt Q8N7B6)
inactive: [7] -0.056 | [8] 0.05

OSBPL9 (UniProt E9PLH0)
inactive: [1] -0.021 | [3] 0.215 | [10] 0

OSGEPL1 (UniProt Q9H4B0)
inactive: [2] -0.169 | [4] -0.157 | [10] -0.009 | [5] 0.104 | [7] 0.031 | [8] 0.062

NXPE1 (UniProt F5H0Y6)
inactive: [10] -0.056

OFD1 (UniProt O75665)
inactive: [2] 0.012 | [4] 0.129 | [10] 0.031 | [6] 0.049 | [5] -0.029 | [7] -0.018 | [8] -0.087 | [9] -0.167

NUP35 (UniProt Q8NFH5)
inactive: [2] 0.203 | [4] 0.298 | [10] 0.01 | [6] -0.073 | [5] -0.314 | [7] 0.205 | [8] -0.028 | [9] -0.008

OXR1 isoform 2 (UniProt Q8N573)
inactive: [6] 0.004 | [9] 0.036

PALM isoform 2 (UniProt O75781)
inactive: [1] 0.006 | [3] 0.09

PACS2 isoform 2 (UniProt Q86VP3)
inactive: [1] -0.043 | [3] -0.012 | [6] -0.057 | [7] -0.098 | [8] 0.038 | [9] 0.083

PARD3B (UniProt Q8TEW8)
inactive: [1] 0.025 | [3] -0.084

NUP214 isoform 4 (UniProt P35658)
inactive: [1] 0.212 | [3] 0.239 | [10] -0.023 | [6] 0.004 | [9] 0.173

OBSCN isoform 6 (UniProt Q5VST9)
inactive: [1] -0.016 | [3] -0.091

OGG1 isoform 4 (UniProt O15527)
inactive: [1] 0.246 | [3] -0.073 | [7] -0.078 | [8] 0.123

OXLD1 (UniProt Q5BKU9)
inactive: [6] 0.06 | [9] 0.063

OPHN1 (UniProt O60890)
inactive: [10] 0.047 | [6] -0.032 | [7] -0.127 | [8] -0.011 | [9] 0.104

OS9 isoform 7 (UniProt Q13438)
inactive: [1] 0.024 | [3] -0.176

OAF (UniProt Q86UD1)
inactive: [1] 0.174 | [3] -0.092 | [6] -0.198 | [9] 0.042

PAOX (UniProt Q6QHF9)
inactive: [10] 0.005 | [6] 0.002 | [9] 0.079

OAS3 (UniProt Q9Y6K5)
inactive: [1] -0.19 | [3] -0.031 | [6] 0.261 | [7] -0.036 | [8] -0.059 | [9] 0.11

PAGE4 (UniProt O60829)
inactive: [1] -0.423 | [3] 0.098 | [10] 0.034 | [6] 0.015 | [7] -0.068 | [8] -0.095 | [9] -0.034

PABPN1 (UniProt Q86U42)
inactive: [10] 0.08 | [6] 0.032 | [7] -0.156 | [8] -0.068 | [9] 0.011

PANK2 (UniProt Q9BZ23)
inactive: [2] -0.012 | [4] -0.019 | [10] 0.011 | [6] -0.078 | [5] -0.044 | [7] -0.008 | [8] -0.06 | [9] 0.14

11 consecutive entries already listed:
NUP214 isoform 4 (UniProt P35658)
inactive: [1] 0.212 | [3] 0.239 | [10] -0.023 | [6] 0.004 | [9] 0.173

OBSCN isoform 6 (UniProt Q5VST9)
inactive: [1] -0.016 | [3] -0.091

OGG1 isoform 4 (UniProt O15527)
inactive: [1] 0.246 | [3] -0.073 | [7] -0.078 | [8] 0.123

OXLD1 (UniProt Q5BKU9)
inactive: [6] 0.06 | [9] 0.063

OPHN1 (UniProt O60890)
inactive: [10] 0.047 | [6] -0.032 | [7] -0.127 | [8] -0.011 | [9] 0.104

OS9 isoform 7 (UniProt Q13438)
inactive: [1] 0.024 | [3] -0.176

OAF (UniProt Q86UD1)
inactive: [1] 0.174 | [3] -0.092 | [6] -0.198 | [9] 0.042

PAOX (UniProt Q6QHF9)
inactive: [10] 0.005 | [6] 0.002 | [9] 0.079

OAS3 (UniProt Q9Y6K5)
inactive: [1] -0.19 | [3] -0.031 | [6] 0.261 | [7] -0.036 | [8] -0.059 | [9] 0.11

PAGE4 (UniProt O60829)
inactive: [1] -0.423 | [3] 0.098 | [10] 0.034 | [6] 0.015 | [7] -0.068 | [8] -0.095 | [9] -0.034

PABPN1 (UniProt Q86U42)
inactive: [10] 0.08 | [6] 0.032 | [7] -0.156 | [8] -0.068 | [9] 0.011

Further entries.

ORC1 (UniProt Q13415)
inactive: [7] 0.216 | [8] 0.05

PAQR4 (UniProt Q8N4S7)
inactive: [1] 0.138 | [3] -0.003

OCIAD1 (UniProt D6RDK6)
inactive: [2] -0.087 | [4] -0.108 | [5] -0.151 | [7] -0.05 | [8] -0.005

OSBPL1A (UniProt Q9BXW6)
inactive: [1] 0.235 | [3] 0.205 | [10] 0.038

NXF2 (UniProt Q9GZY0)
inactive: [1] 0 | [3] -0.073

P2RY1 (UniProt P47900)
inactive: [1] -0.014 | [3] -0.07 | [10] 0.148 | [6] 0.023 | [7] -0.024 | [8] 0.094 | [9] 0.07

PAPSS2 isoform 2 (UniProt O95340)
inactive: [2] 0.113 | [4] 0.044 | [10] 0.021 | [5] -0.152 | [7] -0.045 | [8] -0.075

NUP214, A0A494C1F2
inactive: [1] 0.04 | [3] 0.057 | [6] -0.265 | [9] 0.176

PABPC1 (UniProt H0YAR2)
inactive: [1] -0.008 | [3] 0.065 | [10] -0.178 | [6] 0.008 | [9] 0.028

OCIAD1 (UniProt D6RF01)
inactive: [10] -0.188

ORAI1 (UniProt Q96D31)
inactive: [1] 0.057 | [3] 0.159 | [10] 0.198 | [6] -0.129 | [7] -0.081 | [8] 0.058 | [9] 0.06
